Measured values published in PubChem BioAssay AID248 (DTP/NCI, 2004).
The list is a part of this screen's results and no random one: it gathers some chemical classes. Not every dose and run of a compound is shown. T/C is the treated group as % of the vehicle group. Some entries give survivors of the animals treated and no T/C: the source holds a T/C of zero for them, seemingly a mark for toxic or unscored doses. Some survivor counts are full or nearly so, which does not show that the dose was tolerated: the source hardly ever lists a survival T/C far under the control, and the zero likely stands for such cases as well. Survivors were counted at the toxicity check, usually on the fifth day, unless a day is given; later deaths do not show. Schedule codes are those of the source, read here as Q, the interval in days (D) or hours (H), X, the number of doses. Some schedules carry Z or #; the key to these is not given. For survival time, the PubChem record calls one and a half times the control and up active, and a quarter to a half above the control has no call in these data; cut-offs in other NCI protocols can differ. Some doses were run more than once; the values are given in rising order. Some T/C values are marked as having no survivor count here; that says nothing about deaths at the dose. Some T/C values carry the count of animals alive at the toxicity check (mostly the fifth day); where neither a count nor a note follows, no animal had died by that day.

System: L1210 leukemia ip in BDF1 mice, survival T/C
Experiment: NCI In Vivo Anticancer Drug Screen. Data for tumor model L1210 Leukemia (intraperitoneal) in B6D2F1 (BDF1) mice
Conditions: T/C endpoint: mean survival time, higher T/C = longer survival
[1] = dose: 20.0 mg/kg/injection, schedule: Q01DX Z (ip), vehicle: saline
[2] = dose: 100.0 mg/kg/injection, schedule: Q04DX003 (ip), vehicle: saline with Tween-80
[3] = dose: 200.0 mg/kg/injection, schedule: Q04DX003 (ip), vehicle: saline with Tween-80
[4] = dose: 400.0 mg/kg/injection, schedule: Q04DX003 (ip), vehicle: saline with Tween-80

## CCOC(=O)C(CCSC)NC(=O)OCCNCCCl (stereo not given)
dose: 25.0 mg/kg/injection, schedule: Q01DX009 (ip), vehicle: saline
  T/C: 111 % of control [5 of 6 alive]
dose: 42.0 mg/kg/injection, schedule: Q01DX009 (ip), vehicle: saline
  T/C: 113 % of control
dose: 50.0 mg/kg/injection, schedule: Q01DX009 (ip), vehicle: saline
  T/C: 129 % of control
dose: 72.0 mg/kg/injection, schedule: Q01DX009 (ip), vehicle: saline
  T/C: 115 % of control
dose: 100.0 mg/kg/injection, schedule: Q01DX009 (ip), vehicle: saline
  survivor count: 4 of 6
dose: 120.0 mg/kg/injection, schedule: Q01DX009 (ip), vehicle: saline
  T/C: 118 % of control
dose: 176.0 mg/kg/injection, schedule: Q04DX003 (ip), vehicle: saline
  survivor count: 2 of 6
dose: 178.0 mg/kg/injection, schedule: Q04DX003 (ip), vehicle: saline
  T/C: 90 % of control
dose: 200.0 mg/kg/injection, schedule: Q01DX009 (ip), vehicle: saline
  survivor count: 0 of 6
dose: 264.0 mg/kg/injection, schedule: Q04DX003 (ip), vehicle: saline
  survivor count: 0 of 6
dose: 266.0 mg/kg/injection, schedule: Q04DX003 (ip), vehicle: saline
  survivor count: 1 of 6
dose: 400.0 mg/kg/injection, schedule: Q04DX003 (ip), vehicle: saline
  survivor count: 0 of 6
dose: 600.0 mg/kg/injection, schedule: Q04DX003 (ip), vehicle: saline
  survivor count: 0 of 6

## CN(CN(CN(C)[N+](=O)[O-])CN(C)[N+](=O)[O-])[N+](=O)[O-]
dose: 100.0 mg/kg/injection, schedule: Q01DX001 (ip), vehicle: carboxymethylcellulose (CMC)
  T/C: 96 % of control [survivor count not shown]
dose: 100.0 mg/kg/injection, schedule: Q04DX003 (ip), vehicle: Klucel (hydroxypropylcellulose) (HPC)
  T/C: 105 % of control [survivor count not shown]
dose: 200.0 mg/kg/injection, schedule: Q01DX001 (ip), vehicle: carboxymethylcellulose (CMC)
  T/C: 98 % of control [survivor count not shown]
dose: 200.0 mg/kg/injection, schedule: Q04DX003 (ip), vehicle: Klucel (hydroxypropylcellulose) (HPC)
  T/C: 101 % of control [survivor count not shown]
dose: 400.0 mg/kg/injection, schedule: Q01DX001 (ip), vehicle: carboxymethylcellulose (CMC)
  T/C: 96 % of control [survivor count not shown]
dose: 400.0 mg/kg/injection, schedule: Q04DX003 (ip), vehicle: Klucel (hydroxypropylcellulose) (HPC)
  T/C: 108 % of control [survivor count not shown]

## CCN(CC)CCOC(=O)C(O)(c1ccc(OC)cc1)c1ccc(OC)cc1
dose: 75.0 mg/kg/injection, schedule: Q01DX001 (ip), vehicle: other
  T/C: 101 % of control
dose: 150.0 mg/kg/injection, schedule: Q01DX001 (ip), vehicle: other
  T/C: 92 % of control

## O[C@H](CNCCCl)[C@@H](O)CNCCCl
dose: 0.35 mg/kg/injection, schedule: Q01DX Z (ip), vehicle: saline
  T/C: 110 % of control
dose: 0.38 mg/kg/injection, schedule: Q01DX Z (ip), vehicle: saline
  T/C: 131 % of control
dose: 0.54 mg/kg/injection, schedule: Q01DX Z (ip), vehicle: saline
  T/C: 134 % of control
dose: 0.6 mg/kg/injection, schedule: Q01DX Z (ip), vehicle: methylcellulose (MC)
  T/C: 111 % of control
dose: 0.75 mg/kg/injection, schedule: Q01DX Z (ip), vehicle: saline
  T/C: 125 % of control
dose: 0.8 mg/kg/injection, schedule: Q01DX Z (ip), vehicle: saline
  T/C: 136 and 138 % of control
dose: 1.2 mg/kg/injection, schedule: Q01DX Z (ip), vehicle: methylcellulose (MC)
  T/C: 117 % of control
dose: 1.2 mg/kg/injection, schedule: Q01DX Z (ip), vehicle: saline
  T/C: 138 and 154 % of control
dose: 1.5 mg/kg/injection, schedule: Q01DX Z (ip), vehicle: saline
  T/C: 142 % of control
dose: 2.3 mg/kg/injection, schedule: Q01DX Z (ip), vehicle: methylcellulose (MC)
  T/C: 128 % of control
dose: 2.66 mg/kg/injection, schedule: Q01DX Z (ip), vehicle: saline
  T/C: 141 and 157 % of control
dose: 3.0 mg/kg/injection, schedule: Q01DX Z (ip), vehicle: saline
  T/C: 153 % of control
dose: 4.0 mg/kg/injection, schedule: Q01DX Z (ip), vehicle: saline
  T/C: 148 and 186 % of control
dose: 4.5 mg/kg/injection, schedule: Q01DX Z (ip), vehicle: methylcellulose (MC)
  T/C: 140 % of control
dose: 6.0 mg/kg/injection, schedule: Q01DX Z (ip), vehicle: saline
  T/C: 152, 183, 194 % of control
dose: 9.0 mg/kg/injection, schedule: Q01DX Z (ip), vehicle: methylcellulose (MC)
  T/C: 103 % of control [5 of 6 alive]
dose: 9.0 mg/kg/injection, schedule: Q01DX Z (ip), vehicle: saline
  T/C: 123, 188, 228 % of control
dose: 13.0 mg/kg/injection, schedule: Q01DX Z (ip), vehicle: saline
  T/C: 93 % of control
dose: 13.5 mg/kg/injection, schedule: Q01DX Z (ip), vehicle: saline
  T/C: 148 and 235 % of control
[1]
  T/C: 166 % of control
  survivor count: 6 of 6
dose: 30.0 mg/kg/injection, schedule: Q01DX Z (ip), vehicle: saline
  T/C: 133 % of control
dose: 45.0 mg/kg/injection, schedule: Q01DX Z (ip), vehicle: saline
  T/C: 100 % of control

## CN(C)P(C)(N)(Cl)N(C)C
dose: 100.0 mg/kg/injection, schedule: Q01DX001 (ip), vehicle: steroid suspending solution
  T/C: 100 % of control [survivor count not shown]

## C[N+](C)(C)c1ccccc1.F[P-](F)(F)(F)(F)F
[2]
  survivor count: 0 of 6
[3]
  survivor count: 1 of 6
[4]
  survivor count: 0 of 6

## O=P(OCc1ccccc1)(N(CCCl)CCCl)N1CC1 (stereo not given)
dose: 1.25 mg/kg/injection, schedule: Q01DX Z (ip), vehicle: saline
  T/C: 95 % of control
dose: 2.5 mg/kg/injection, schedule: Q01DX Z (ip), vehicle: saline
  T/C: 111 % of control
dose: 5.0 mg/kg/injection, schedule: Q01DX Z (ip), vehicle: saline
  T/C: 116 % of control
dose: 5.0 mg/kg/injection, schedule: Q01DX Z (ip), vehicle: water
  T/C: 111 % of control
dose: 10.0 mg/kg/injection, schedule: Q01DX Z (ip), vehicle: water
  T/C: 96 % of control
dose: 20.0 mg/kg/injection, schedule: Q01DX Z (ip), vehicle: water
  survivor count: 4 of 6

## COC(=O)C1(C)COP(=O)(Cl)OC1 (stereo not given)
dose: 100.0 mg/kg/injection, schedule: Q01DX001 (ip), vehicle: saline
  T/C: 96 % of control
dose: 200.0 mg/kg/injection, schedule: Q01DX001 (ip), vehicle: saline
  T/C: 97 % of control
dose: 400.0 mg/kg/injection, schedule: Q01DX001 (ip), vehicle: saline
  survivor count: 4 of 6

## O=P(Cl)(c1ccccc1)c1ccccc1
[2]
  T/C: 98 % of control
[3]
  T/C: 96 % of control
[4]
  T/C: 95 % of control
